Measurements taken from the supplement of paper PMC3682954.
Values joined by “and” are separate entries in the source; they are usually repeats but may differ in a detail not shown here. Equal values may be shown once. Where a name gives a salt, the structure may show the parent alone. ± gives the standard deviation of the averaged measurements. The list shows a part of the results. Single values are uncertain, as repeats are few or missing.

Tested on: RAW 264.7
Assay: cell viability (MTT) relative to vehicle control; higher = more viable cells
Conditions: stimulus: HMGB1 5 ug/ml, 18 h
[1] = compound concentration: 1 ug/ml

| Structure (SMILES) | cell viability (compound concentration: 3 uM) | cell viability [1] [%] |
| --- | --- | --- |
| Cc1cc(NC(=O)C2=C(O)c3ccccc3S(=O)(=O)N2C)no1 | 112% |  |
| O=C1NC(=O)/C(=C\c2ccc3nccnc3c2)S1 | 107% |  |
| Cc1cc(C(C)(C)CC(C)(C)C)ccc1OCCOCC[N+](C)(C)Cc1ccccc1 | 92.9% |  |
| Cc1cc(C(C)(C)CC(C)(C)C)ccc1OCCOCC[N+](C)(C)Cc1ccccc1 [Methyl benzethonium chloride] | 109% |  |
| Nc1ccc(O)c(C(=O)O)c1 [5-Amino-2-hydroxy-benzoic acid] | 97.9% |  |
| Nc1ccc(O)c(C(=O)O)c1 [5-Aminosalicylic acid] | 90.5% |  |
| Nc1ccc(O)c(C(=O)O)c1 [Mesalamine] | 86% |  |
| Nc1ccc(O)c(C(=O)O)c1 | 97.3% |  |
| CCN(CC)CCOC(=O)C1(c2ccc([N+](=O)[O-])cc2)CCCC1 [Nitrocaramiphen hydrochloride] | 69.6% |  |
| Clc1ccccc1CN1CCc2sccc2C1 | 96.5% and 107% |  |
| Clc1ccccc1CN1CCc2sccc2C1 [Ticlopidine] | 106% |  |
| Clc1ccccc1CN1CCc2sccc2C1 [Ticlopidine hydrochloride] | 91.2% |  |
| Nc1ccc(S(=O)(=O)Nc2ncccn2)cc1 | 101% |  |
| Nc1ccc(S(=O)(=O)Nc2ncccn2)cc1 [Sulfadiazine] | 97.3 ± 9.1% |  |
| O=C(O[C@H]1[C@H](Oc2ccccc2COC(=O)C2(O)C=CCCC2=O)O[C@H](CO)[C@@H](O)[C@@H]1O)c1ccccc1 (stereo partly specified) | 96.8% |  |
| O=C(Nc1ccn([C@@H]2O[C@H](CO)[C@@H](O)[C@H]2O)c(=O)n1)c1ccccc1 [N4-Benzoylcytidine] |  | 97.3 |
| C#C[C@]1(OC(C)=O)CC[C@H]2[C@@H]3CCC4=C[C@@H](OC(C)=O)CC[C@@H]4[C@H]3CC[C@@]21C [Ethynodiol diacetate] | 97.5% |  |
| C#C[C@]1(OC(C)=O)CC[C@H]2[C@@H]3CCC4=C[C@@H](OC(C)=O)CC[C@@H]4[C@H]3CC[C@@]21C | 98.2% |  |
| COc1cc2c(CCNC(C)=O)c[nH]c2cc1O [6-Hydroxymelatonin] | 108% |  |
| O=C(O)CNC(=O)c1ccccc1 [Hippuric acid] |  | 99.9 |
| C#C[C@]1(O)CC[C@H]2[C@@H]3CCC4=CC(=O)CC[C@@H]4[C@H]3CC[C@@]21C | 105% |  |
| C#C[C@]1(O)CC[C@H]2[C@@H]3CCC4=CC(=O)CC[C@@H]4[C@H]3CC[C@@]21C [Norethindrone] | 95.6 ± 3.2% |  |
| CO[C@@]1(NC(=O)C(C(=O)O)c2ccc(O)cc2)C(=O)N2C(C(=O)O)=C(CSc3nnnn3C)CO[C@@H]21 (stereo partly specified) [Moxalactam disodium salt] | 100% |  |
| CO[C@@]1(NC(=O)C(C(=O)O)c2ccc(O)cc2)C(=O)N2C(C(=O)O)=C(CSc3nnnn3C)CO[C@@H]21 (stereo partly specified) | 109% |  |
| COc1ccc(-c2coc3ccc(OC4OC(COC(C)=O)C(OC(C)=O)C(OC(C)=O)C4OC(C)=O)cc3c2=O)cc1 (stereo unspecified) |  | 95 |
| CS(=O)(=O)c1ccc([C@H](O)[C@@H](COC(=O)CN)NC(=O)C(Cl)Cl)cc1 [Thiamphenicol glycinate] | 95.7% |  |

Rewritten bar-delimited: entries from further up.
Structure (SMILES) | cell viability (compound concentration: 3 uM) | cell viability [1] [%]
Cc1cc(C(C)(C)CC(C)(C)C)ccc1OCCOCC[N+](C)(C)Cc1ccccc1 [Methyl benzethonium chloride] | 109% | 
Nc1ccc(O)c(C(=O)O)c1 [5-Amino-2-hydroxy-benzoic acid] | 97.9% | 
Nc1ccc(O)c(C(=O)O)c1 [5-Aminosalicylic acid] | 90.5% | 
Nc1ccc(O)c(C(=O)O)c1 [Mesalamine] | 86% | 
Nc1ccc(O)c(C(=O)O)c1 | 97.3% | 
